PubChem BioAssay AID504793, Drosophila RNAi Screening Center, 2011
Purpose: 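Whole-genome screen for parts of the DNA damage checkpoint at G2/M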 (primary screen). Cell system: Drosophila S2R+ cells. Knock-down reagent: long dsRNA against Drosophila genes, about 0.25 µg dsRNA per well. Timing: 4 days of dsRNA, then 4 hours of drug before read-out. Challenge: doxorubicin 0.5 µM for 4 hours to cause double-strand breaks, in cells also given a low, harmless dose of dsRNA against nbs to sensitise the assay. Read-out: 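Mitotic index as the number of phospho-histone H3-positive cells in each well following doxorubicin, given as raw counts without normalisation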. Reading the numbers: mitotic cells: higher = more cells in mitosis, weaker G2 arrest. Call rule: 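a call needs confirmation in secondary tests, with other dsRNAs and a check of mitotic timing without damage, not just a high primary count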. Meaning of the calls: active = confirmed in follow-up tests; inactive = not confirmed.
The deposit covers about 23,000 reagents; shown is a random part of those with a known target gene and a result. Of all reagents, 62 (0.27%) got an active call. 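Calls come from follow-up tests whose scores are not deposited, so confirmed genes may have low counts here; counts are not normalised per plate.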 The raw values are shown without normalisation. Unmarked entries are inactive. Reagents against one gene are numbered here. A plus sign joins genes that one reagent is predicted to hit.

Dref | mitotic cells, replicate 1 = 3
CG42269 #1 | mitotic cells, replicate 1 = 9
CG42269 #2 | mitotic cells, replicate 1 = 5
CG42269 #3 | mitotic cells, replicate 1 = 8
CG42269 #4 | mitotic cells, replicate 1 = 7
CG11723 #1 | mitotic cells, replicate 1 = 6
CG11723 #2 | mitotic cells, replicate 1 = 11
CG4835 #1 | mitotic cells, replicate 1 = 4
CG4835 #2 | mitotic cells, replicate 1 = 1
mthl5 | mitotic cells, replicate 1 = 3
Or19b + Or19a | mitotic cells, replicate 1 = 13
Alh #1 | mitotic cells, replicate 1 = 9
Alh #2 | mitotic cells, replicate 1 = 2
Alh #3 | mitotic cells, replicate 1 = 6
Alh #4 | mitotic cells, replicate 1 = 5
CG7173 #1 | mitotic cells, replicate 1 = 9
CG7173 #2 | mitotic cells, replicate 1 = 9
ox | mitotic cells, replicate 1 = 9
mRpS35 | mitotic cells, replicate 1 = 1
He | mitotic cells, replicate 1 = 9
Eip74EF #1 | mitotic cells, replicate 1 = 4
Eip74EF #2 | mitotic cells, replicate 1 = 9
sp3 | mitotic cells, replicate 1 = 6
CG13455 | mitotic cells, replicate 1 = 8
Tis11 | mitotic cells, replicate 1 = 19
Cpr47Ed | mitotic cells, replicate 1 = 7
CG2528 | mitotic cells, replicate 1 = 5
Nepl17 | mitotic cells, replicate 1 = 6
CG13272 #1 | mitotic cells, replicate 1 = 6
CG13272 #2 | mitotic cells, replicate 1 = 17
CG13272 #3 | mitotic cells, replicate 1 = 2
CG10730 #1 | mitotic cells, replicate 1 = 7
CG10730 #2 | mitotic cells, replicate 1 = 3
CG2082 #1 | mitotic cells, replicate 1 = 7
CG2082 #2 | mitotic cells, replicate 1 = 9

Individual results from above.
Result of Dref in “mitotic cells, replicate 1”: 3
Result for mthl5 under “mitotic cells, replicate 1”: 3
Value for CG4835 #2 in “mitotic cells, replicate 1”: 1
ox, mitotic cells, replicate 1 → 9
